In the assay the test system is PC9 cells (SM). Nature of the assay: PC-9 growth inhibition assay (cell proliferation), Method B. Particulars: read-out: SM (PC9) IC50 nM, cellular proliferation, 72 h, several runs.

The structures appear in SMILES notation. For part of its entries the source gives two or more results. This is not the full list of results. The source may hold further records. The records of an entry do not match, cause unknown; some may be repeats, others may stem from another dose, organism or construct than stated.

In the case of `C=CC(=O)Nc1cc(Nc2nccc(-c3c[nH]c4ccccc34)n2)c(OC)cc1N(C)CCN(C)C` [AZD-5104], the IC50 is 2.44 nM and 0.85 nM.

The values above are taken from US10435388B2, “Selective inhibitors of clinically important mutants of the EGFR tyrosine kinase” (CS PHARMATECH LIMITED, priority 2016, dated 2019).
